Test results taken from publication PMC12166087.
No constants are given. Whether binding was seen depends on the method and setting. Binding seen in cells or lysates may run through a third protein. Some results given as binding are weak or reduced against the parent protein; the word gives no strength.

The chains behind the UniProt entries cited, without tags or fusion partners.
UniProt Q13772: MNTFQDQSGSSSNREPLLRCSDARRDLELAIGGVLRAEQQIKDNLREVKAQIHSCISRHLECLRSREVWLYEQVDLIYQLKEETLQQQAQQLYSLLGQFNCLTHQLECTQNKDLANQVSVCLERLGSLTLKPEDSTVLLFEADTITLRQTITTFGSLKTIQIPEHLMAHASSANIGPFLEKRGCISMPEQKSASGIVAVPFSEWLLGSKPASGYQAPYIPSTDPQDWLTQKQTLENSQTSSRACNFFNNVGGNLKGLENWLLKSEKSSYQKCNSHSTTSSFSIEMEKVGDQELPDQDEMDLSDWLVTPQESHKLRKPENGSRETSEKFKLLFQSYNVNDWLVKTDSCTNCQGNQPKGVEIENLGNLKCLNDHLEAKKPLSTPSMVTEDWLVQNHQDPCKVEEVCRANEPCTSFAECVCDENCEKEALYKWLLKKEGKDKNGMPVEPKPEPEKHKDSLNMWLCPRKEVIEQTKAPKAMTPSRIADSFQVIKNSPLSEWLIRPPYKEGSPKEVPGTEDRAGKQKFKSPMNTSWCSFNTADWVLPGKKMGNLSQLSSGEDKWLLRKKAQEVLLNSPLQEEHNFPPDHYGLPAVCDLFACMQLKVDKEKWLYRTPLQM

Biological target: T1, Ubiquitin-specific protease 18 (USP18) (human (endogenous in HepG2)) (UniProt Q9UMW8)
T1 sequence: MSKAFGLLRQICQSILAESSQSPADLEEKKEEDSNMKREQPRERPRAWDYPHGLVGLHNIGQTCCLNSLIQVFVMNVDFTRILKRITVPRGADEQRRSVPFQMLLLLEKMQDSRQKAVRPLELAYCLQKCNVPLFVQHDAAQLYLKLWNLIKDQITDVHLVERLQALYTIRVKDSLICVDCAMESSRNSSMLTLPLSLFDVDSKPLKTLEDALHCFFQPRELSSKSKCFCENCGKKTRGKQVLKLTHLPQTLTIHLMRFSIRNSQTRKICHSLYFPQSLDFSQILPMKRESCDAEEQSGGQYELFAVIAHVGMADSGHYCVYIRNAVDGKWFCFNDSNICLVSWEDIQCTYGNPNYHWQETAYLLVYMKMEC
Test: co-IP; HepG2 cell lysates immunoprecipitated with anti-USP18 antibodies and blotted with anti-NCOA4 antibodies

Nuclear receptor coactivator 4 (NCOA4) (from UniProt Q13772 1-614)
binding: binds
